# Experimental data published in US20240058337A1, “Managing Side Effects in T Cell Therapy” (Innovative Cellular Therapeutics Holdings, Ltd., priority 2022, published 2024).
# For at least one compound, name, drawing or mass did not settle the structure.
# Tests used:
# Format in all cases: in vivo, human
# [1] = tested on: colorectal cancer (CRC) patients; assay: Proposed dasatinib strategy for control of diarrhea after CAR T therapy; settings: dasatinib 100 mg/day
# CD19 CAR T cells = assay: Clinical study: effect of dasatinib on CAR T cell expansion
# PAP CAR T cells = assay: as above
# [2] = tested on: colorectal cancer (CRC) patients; assay: Clinical trial: response and disease control to CAR T therapy with or without dasatinib; settings: clinical data, Table 2
# Experimental: This system was implemented in a clinical trial involving 35 colorectal cancer (CRC) patients, which were treated with mixed population of cells including GCC CAR T cells. Diarrhea, a common side effect, typically presented as early as day 7 (median=9, range 7-15) at a grade two severity or higher. The primary treatment for this was immediate administration of infliximab and, in some cases, dasatinib.
# For the 1×10^6 CAR T/kg of body weight dose, half of the patients managed their diarrhea through supportive care and antidiarrheal medication. Around 85% experienced grade 2 or higher diarrhea, 67% of whom responded well to a single dose of infliximab. At a higher dose of 2×10^6 CAR T/kg bodyweight, only 13% of patients could control diarrhea with supportive care or antidiarrheal drugs, and all patients experienced a grade 2 or higher diarrhea, but only 43% responded to a single infliximab dose. […] In such cases, dasatinib was administered at 100 mg/day for over ten consecutive days until the patient's side effects reduced to grade 1 or less, and the patient was ready for discharge.
smiles,measurement,setting,value
Cc1nc(Nc2ncc(C(=O)Nc3c(C)cccc3Cl)s2)cc(N2CCN(CCO)CC2)n1 [dasatinib],control of diarrhea,[1]; 2×10^6 CAR T/kg dose,control the diarrhea of most patients
same,control of diarrhea,[1]; 3×10^6 CAR T/kg dose,control the diarrhea of most patients
same,CD19 CAR T cell expansion,CD19 CAR T cells,significantly reduced
same,PAP CAR T cells expansion,PAP CAR T cells,not greatly affected
same,impact of dasatinib on GCC CAR T cells' efficacy,[2],did not appear to impact
